Source: patent publication US20190055563

Protein sequences, listed by entry. Tags and fused reporters are not part of them. Residues count along the entry.
UniProt O75417, 1-1000, stated change not applied: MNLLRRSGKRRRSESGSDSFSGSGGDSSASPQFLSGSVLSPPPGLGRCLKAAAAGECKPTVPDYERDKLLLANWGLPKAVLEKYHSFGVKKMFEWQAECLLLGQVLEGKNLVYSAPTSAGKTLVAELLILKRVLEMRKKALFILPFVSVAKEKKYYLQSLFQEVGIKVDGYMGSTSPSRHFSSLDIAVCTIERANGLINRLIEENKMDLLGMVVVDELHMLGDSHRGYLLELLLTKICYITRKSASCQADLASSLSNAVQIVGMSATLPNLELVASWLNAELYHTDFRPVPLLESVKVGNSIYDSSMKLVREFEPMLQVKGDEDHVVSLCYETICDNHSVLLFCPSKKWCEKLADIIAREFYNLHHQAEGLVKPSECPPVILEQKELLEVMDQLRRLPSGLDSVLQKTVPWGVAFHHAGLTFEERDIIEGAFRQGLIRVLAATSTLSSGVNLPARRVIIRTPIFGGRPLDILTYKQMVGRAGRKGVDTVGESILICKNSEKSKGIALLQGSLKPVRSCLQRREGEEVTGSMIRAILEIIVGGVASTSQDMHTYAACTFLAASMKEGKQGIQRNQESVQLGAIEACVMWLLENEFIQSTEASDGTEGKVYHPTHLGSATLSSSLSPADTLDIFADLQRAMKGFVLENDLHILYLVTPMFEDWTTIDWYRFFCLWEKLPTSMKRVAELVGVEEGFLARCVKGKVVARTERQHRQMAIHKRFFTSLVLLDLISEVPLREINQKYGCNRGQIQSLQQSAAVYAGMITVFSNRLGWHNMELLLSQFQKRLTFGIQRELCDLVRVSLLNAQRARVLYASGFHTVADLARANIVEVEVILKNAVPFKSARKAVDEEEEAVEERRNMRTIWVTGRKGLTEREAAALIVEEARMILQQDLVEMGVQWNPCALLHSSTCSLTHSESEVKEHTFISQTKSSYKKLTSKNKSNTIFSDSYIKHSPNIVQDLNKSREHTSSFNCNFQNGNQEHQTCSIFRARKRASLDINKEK

Biological target: POLQ ΔPol2 (amino acids 1-1000) (Homo sapiens) (UniProt O75417)
Assay: activity assay
Details: ADP-Glo ATPase, 10 nM enzyme, 600 nM ssDNA, 100 uM ATP, room temperature; values in figure; 30-mer sequence from p104; purified recombinant protein; protein details: C-terminal Flag, SF9 baculovirus; single-stranded DNA

GTTAGCAGGTACCGAGCAACAATTCACTGG [30-mer ssDNA substrate]
activity on this sequence: active
